# Assay results: PubChem BioAssay AID743195 (National Center for Advancing Translational Sciences (NCATS), 2013)
# Chains of the proteins cited; added tags and fusions are not shown. Lines headed by an entry give the natural chain unless they say otherwise; changes in a name come on top.
# UniProt P00352: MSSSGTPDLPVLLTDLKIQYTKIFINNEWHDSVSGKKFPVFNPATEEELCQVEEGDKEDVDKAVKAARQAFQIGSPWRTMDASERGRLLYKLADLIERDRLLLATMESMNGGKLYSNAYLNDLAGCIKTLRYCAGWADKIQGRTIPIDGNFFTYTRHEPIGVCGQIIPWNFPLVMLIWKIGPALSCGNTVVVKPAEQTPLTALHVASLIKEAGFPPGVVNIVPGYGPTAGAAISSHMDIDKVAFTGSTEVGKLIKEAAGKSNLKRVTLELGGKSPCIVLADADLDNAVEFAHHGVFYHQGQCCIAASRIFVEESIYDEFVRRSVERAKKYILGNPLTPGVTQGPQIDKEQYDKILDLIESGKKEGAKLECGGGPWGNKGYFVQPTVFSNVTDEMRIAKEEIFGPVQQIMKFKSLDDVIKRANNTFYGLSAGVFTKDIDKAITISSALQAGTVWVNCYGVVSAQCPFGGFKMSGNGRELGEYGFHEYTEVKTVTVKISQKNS
# The shares of active, inactive and inconclusive entries below differ from those in the screen. Potencies of inconclusive entries are doubtful fits and often do not repeat. Activity calls are given as the source filed them. Calls come from the whole dose curve; as a rule, active = well fitted inhibition curve with a large enough effect; inconclusive = small, poorly fitted or top-dose-only effect; inactive = no such curve, though single readings can be large or run the other way.
# Target: Aldehyde dehydrogenase 1A1 (Homo sapiens) (UniProt P00352)
# Assay: Extended Characterization of HPGD Inhibitors: Counterscreen Against ALDH1A1
# Conditions: recombinant ALDH1A1, NADH fluorescence, propionaldehyde/NAD+; series mostly up to 57.1 µM
# Excerpt: The central role of HPGD is to inactivate prostaglandins such as prostaglandin E2 (PGE2) or prostaglandin D2 (PGD2). These prostaglandins are involved in a number of processes, including inflammation, differentiation, and cellular signaling, which makes HPGD an important target for pharmacological intervention. Aldehyde dehydrogenase 1 family, member A1 (ALDH1A1) catalyzes the NAD+ dependent oxidation of a variety of endogenous and exogenous aldehydes to the corresponding carboxylic acids. The enzyme is the critical step in the metabolic activation of retinoic acid, which plays an essential role as a nuclear receptor ligand. […] ALDH1A1 shares some homology with HPGD, and it served as a suitable anti-target of HPGD to determine chemical probe selectivity. The assay system is similar to the HPGD primary screening protocol. Inhibition of ALDH1A1 activity was screened by utilizing propionaldehyde as an electron donor and NAD+ as an electron acceptor/cofactor. An increase in the fluorescence intensity due to conversion of NAD+ to NADH was used to measure the enzyme activity. NIH Chemical Genomics Center [NCGC] NIH Molecular Libraries Probe Centers Network [MLPCN] MLPCN Grant: MH084681 Assay Submitter (PI): Structural Genomics Consortium
# 3 uL of enzyme (final concentration 50 nM) or buffer were dispensed into a 1,536-well solid-bottom black plate (Greiner Bio One, Monroe, NC) followed by pin-tool transfer (23 nL) of compound (final concentration range 324 pM to 57.2 uM) and control (Bay 11-7085 (CID-5353432), final concentration range 1.31 nM to 2.86 uM). Samples were incubated (RT, protected from light) for 15 minutes followed by a 1 uL substrate addition of NAD+ and Propionaldehyde (final concentrations of 1 mM and 80 uM, respectively). Plates were centrifuged at 1,000 rpm for 15 seconds, then read in kinetic mode on a ViewLux High-throughput CCD imager (Perkin-Elmer) equipped with standard UV fluorescence optics (340 nm excitation, 450 nm emission) for 10 minutes at 5 minute intervals. Data were normalized (Read […] - Read 10 min) against no-enzyme (positive) and enzyme-containing (neutral) wells.
row,SMILES,Potency
1,COc1ccc(NC(=S)N2CCN(c3cccc(C(F)(F)F)c3)CC2)nc1,active: 3.41 µM
2,Cc1cc(-c2nnc3n2CCCCC3)c(C)n1-c1cccc(C(F)(F)F)c1,"inconclusive: 1.52 µM [inhibitor, partial curve]"
3,O=C(c1ccc2c(c1)ncn2-c1cccc(C(F)(F)F)c1)N1CCCCC1,"inconclusive: 2.41 µM [inhibitor, partial curve]"
4,CCN1CCN(C(=S)c2ccc(O)cc2)CC1,"inconclusive: 21.5 µM [inhibitor, partial curve]"
5,Cc1cncc(NC(=S)N2CCN(c3cccc(C(F)(F)F)c3)CC2)c1,inactive
6,Cc1cc(-c2nnc3n2CCCCC3)c(C)n1-c1cccc(C#N)c1,"inconclusive: 6.81 µM [inhibitor, partial curve]"
7,Cc1ccc(-n2c(C)cc(-c3nnc4n3CCCCC4)c2C)cc1,"inconclusive: 2.41 µM [inhibitor, partial curve]"
8,Cc1cc(-c2nnc3n2CCCCC3)c(C)n1-c1cccc(Cl)c1,"inconclusive: 4.82 µM [inhibitor, full curve, poor fit]"
9,Cc1cc(C)nc(NC(=S)N2CCN(c3cc(C(F)(F)F)cc(C(F)(F)F)c3)CC2)c1,active: 21.5 µM

# Some of these compounds in order of length of the SMILES, smallest number first:
row,SMILES,Potency
8,Cc1cc(-c2nnc3n2CCCCC3)c(C)n1-c1cccc(Cl)c1,"inconclusive: 4.82 µM [inhibitor, full curve, poor fit]"
2,Cc1cc(-c2nnc3n2CCCCC3)c(C)n1-c1cccc(C(F)(F)F)c1,"inconclusive: 1.52 µM [inhibitor, partial curve]"
9,Cc1cc(C)nc(NC(=S)N2CCN(c3cc(C(F)(F)F)cc(C(F)(F)F)c3)CC2)c1,active: 21.5 µM
